No constants are given. Whether binding was seen depends on the method and setting. In cells and extracts the contact can be indirect. Here binding means that the protein was enriched with, or labelled near, the bait; the list need not be complete. Sequences can lack the tags named with a protein.
T1: PP4R3α, regulatory subunit of the protein phosphatase 4 (PP4) complex (human) (UniProt Q6IN85)
T1 sequence (looked up): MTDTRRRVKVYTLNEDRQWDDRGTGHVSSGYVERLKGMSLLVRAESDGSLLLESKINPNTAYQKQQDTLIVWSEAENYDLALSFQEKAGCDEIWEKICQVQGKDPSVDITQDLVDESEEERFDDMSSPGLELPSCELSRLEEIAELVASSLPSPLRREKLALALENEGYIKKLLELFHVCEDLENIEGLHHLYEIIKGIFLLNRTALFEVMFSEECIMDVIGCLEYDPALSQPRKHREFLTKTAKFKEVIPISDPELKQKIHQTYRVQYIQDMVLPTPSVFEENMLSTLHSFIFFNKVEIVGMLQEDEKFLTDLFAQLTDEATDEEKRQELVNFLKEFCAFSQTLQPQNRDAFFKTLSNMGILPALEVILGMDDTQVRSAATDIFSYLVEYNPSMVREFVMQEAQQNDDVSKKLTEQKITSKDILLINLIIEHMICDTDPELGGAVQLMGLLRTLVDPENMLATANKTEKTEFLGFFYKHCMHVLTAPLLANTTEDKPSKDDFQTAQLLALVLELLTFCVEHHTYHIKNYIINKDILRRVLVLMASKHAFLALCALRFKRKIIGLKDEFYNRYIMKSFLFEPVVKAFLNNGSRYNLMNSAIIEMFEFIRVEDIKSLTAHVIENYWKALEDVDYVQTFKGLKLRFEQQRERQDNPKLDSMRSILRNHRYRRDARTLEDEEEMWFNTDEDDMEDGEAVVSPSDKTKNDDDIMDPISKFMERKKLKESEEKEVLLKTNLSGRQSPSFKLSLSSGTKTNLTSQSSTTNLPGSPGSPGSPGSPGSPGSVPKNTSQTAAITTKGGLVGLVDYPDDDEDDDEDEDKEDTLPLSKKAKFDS


Legend:
[1] = target: T1, PP4R3α, regulatory subunit of the protein phosphatase 4 (PP4) complex (human); test: affinity purification-mass spectrometry (interaction proteomics), OVCAR-5 and COV318 cells, against tag-alone control
[2] = target: PP4R3β, regulatory subunit of the protein phosphatase 4 (PP4) complex (human) (UniProt Q5MIZ7); test: as above
[3] = target: T1, PP4R3α, regulatory subunit of the protein phosphatase 4 (PP4) complex (human); test: affinity purification-mass spectrometry, COV318 cells expressing V5-tagged CT45
[4] = target: PP4R3β, regulatory subunit of the protein phosphatase 4 (PP4) complex (human) (UniProt Q5MIZ7); test: as above
[5] = target: T1, PP4R3α, regulatory subunit of the protein phosphatase 4 (PP4) complex (human); test: affinity purification-mass spectrometry, OVCAR-5 cells expressing Flag-tagged CT45
[6] = target: PP4R3β, regulatory subunit of the protein phosphatase 4 (PP4) complex (human) (UniProt Q5MIZ7); test: as above

Row | binding [1] | binding [2] | binding [3] | binding [4] | binding [5] | binding [6] | Binder
1 | binds | binds | binds | binds | – | – | C-terminally tagged CT45A5 (V5 tag) (protein, not shown: small tags and cut ends) MTDKTEKVAVDPETVFKRPRECDSPSYQKRQRMALLARKQGAGDSLIAGSAMSKEKKLMTGHAIPPSQLDSQIDDFTGFSKDGMMQKPGSNAPVGGNVTSSFSGDDLECRETASSPKSQREINADIKRKLVKELRCVGQKYEKIFEMLEGVQGPTAVRKRFFESIIKEAARCMRRDFVKHLKKKLKRMI
2 | – | – | – | – | binds | binds | N-terminally tagged CT45A1 (3xFLAG tag) (protein, not shown: small tags and cut ends) MTDKTEKVAVDPETVFKRPRECDSPSYQKRQRMALLARKQGAGDSLIAGSAMSKAKKLMTGHAIPPSQLDSQIDDFTGFSKDRMMQKPGSNAPVGGNVTSSFSGDDLECRETASSPKSQREINADIKRKLVKELRCVGQKYEKIFEMLEGVQGPTAVRKRFFESIIKEAARCMRRDFVKHLKKKLKRMI

Reference: patent publication US20250122255A1
